{"source": "patent US20080160108A1", "about": "“Method of treating muscular dystrophies with an inhibitor of histone deacetylase” (Centre National de la Recherche Scientifique- CNRS, a …, priority 2002, published 2008)", "key": {"utrophin [1]": {"test_system": "utrophin", "assay": "Utrophin in human myotubes in culture, immunofluorescence", "assay_type": "cell-based", "conditions": "differentiated human myotubes, 0.5 mM"}, "utrophin [2]": {"test_system": "utrophin", "assay": "Utrophin in muscle of mdx mice injected i.p., immunofluorescence and Western blot", "assay_type": "in vivo, mouse", "conditions": "200 mg/kg/day i.p. daily for 6 weeks", "method": "Mdx mice were injected daily i.p. and for 6 weeks with 200 mg/kg/day either with butyrate or with L-arginine or with physiological serum. It is observed that the utrophin is poorly expressed in the muscle of the mdx mice injected with physiological serum used as control. […] It should be noted that the augmentation of utrophin is greater in the case of the mice injected with butyrate. The augmentation of the utrophin was quantified in Western blot."}}, "note": "For at least one compound, name, drawing or mass did not settle the structure."}
{"molecule": "CCCC(=O)O", "note": "[butyrate]", "values": [{"measurement": "augmentation of utrophin visualized by immunofluorescence", "setting": "utrophin [1]", "result": "particularly significant"}, {"measurement": "augmentation of utrophin, butyrate compared with L-arginine", "setting": "utrophin [2]", "result": "greater"}, {"measurement": "utrophin localisation in muscle", "setting": "utrophin [2]; vs physiological serum control", "result": "the utrophin appears under the muscular membrane"}]}
